Conditions in all cases: 5 µM; treatment: days 7-14 after plating, readout day 21
The subject of test [1] is hPSC-derived cortical neurons (WA09). Kind of test: nucleus area z-score vs screen plate; higher = larger nuclei (more mature).
The test system is the same in test [2]. Kind of test: total neurite length per nucleus (MAP2) z-score; higher = more neurite growth.
Test [3] shares this test system. Kind of test: nucleus roundness z-score vs screen plate; higher = rounder nuclei (more mature).
Test [4] shares this test system. The experiment in a line: KCl-induced FOS+/EGR-1+ double-positive nuclei fraction z-score (KCl minus unstimulated); higher = stronger activity-induced IEG response.

Here are results for 25 compounds from the supplement of paper PMC11348887.

Each structure is given as a SMILES string. Structures can show the parent of a compound that is named as a salt. The list shows a part of the results. Small differences around the control level are noise.

`CC(=O)O[C@]1(C(C)=O)CC[C@H]2[C@@H]3C=C(C)C4=CC(=O)CC[C@]4(C)[C@H]3CC[C@@]21C` [Megestrol Acetate] registered a nucleus area z-score in test [1] of -0.194. In test [2], the “total neurite length per nucleus (z-score)” value was 0.763. The compound also showed a nucleus roundness z-score in test [3] of 0.579. In test [4], the “KCl-induced FOS+/EGR-1+ double-positive nuclei fraction z-score” value amounted to 0.0955.

In test [1], `COc1ccc2c(c1)c(CC(=O)OCC(=O)O)c(C)n2C(=O)c1ccc(Cl)cc1` [Acemetacin] registered a nucleus area z-score of 1.07. For the same compound, the “total neurite length per nucleus (z-score)” value in test [2] was 0.0452. The nucleus roundness z-score in test [3] was -0.588. Moreover, in test [4], the “KCl-induced FOS+/EGR-1+ double-positive nuclei fraction z-score” value was -0.383.

`C[C@@H]1O[C@@H](OC[C@H]2O[C@@H](Oc3c(-c4ccc(OCCO)c(OCCO)c4)oc4cc(OCCO)cc(O)c4c3=O)[C@H](O)[C@@H](O)[C@@H]2O)[C@H](O)[C@H](O)[C@H]1O` [Troxerutin] had a nucleus area z-score in test [1] of 0.825. In test [2], the “total neurite length per nucleus (z-score)” value was -0.0223. For the same compound, in test [3], the nucleus roundness z-score was -0.304. Moreover, the “KCl-induced FOS+/EGR-1+ double-positive nuclei fraction z-score” value in test [4] was determined as 1.11.

In test [1], `Cc1ccc(NC(=O)c2ccc(CN3CCN(C)CC3)cc2)cc1Nc1nccc(-c2cccnc2)n1` [Imatinib (STI571)] returned a nucleus area z-score of -3.22. Further, the “total neurite length per nucleus (z-score)” value in test [2] is -1.48. The nucleus roundness z-score in test [3] is -0.519. In addition, in test [4], the “KCl-induced FOS+/EGR-1+ double-positive nuclei fraction z-score” value worked out at 1.69.

`COc1cc(C(=O)O)ccc1NC(=O)[C@@H]1N[C@@H](CC(C)(C)C)[C@](C#N)(c2ccc(Cl)cc2F)[C@H]1c1cccc(Cl)c1F` [Idasanutlin (RG-7388)] came in with a nucleus area z-score in test [1] of 0.695. In addition, the “total neurite length per nucleus (z-score)” value in test [2] turned out to be 0.807. In addition, the nucleus roundness z-score in test [3] is 0.259. In test [4], the “KCl-induced FOS+/EGR-1+ double-positive nuclei fraction z-score” value amounted to 0.574.

With `CCn1cc(C(=O)O)c(=O)c2cc(F)c(N3CCNCC3)nc21` [Enoxacin], in test [1], the nucleus area z-score came out at 1.25. The “total neurite length per nucleus (z-score)” value in test [2] is -1.76. The nucleus roundness z-score in test [3] was -0.283. Besides, the “KCl-induced FOS+/EGR-1+ double-positive nuclei fraction z-score” value in test [4] was -0.32.

In test [1], `CC1=C(C(=O)OC2CCCCC2)C(c2ccc([N+](=O)[O-])cc2)C2=C(CC(C)(C)CC2=O)N1` (stereo not given) registered a nucleus area z-score of 0.452. In addition, in test [2], the “total neurite length per nucleus (z-score)” value stood at 0.0384. The compound further gave a nucleus roundness z-score in test [3] of -0.486. In addition, the “KCl-induced FOS+/EGR-1+ double-positive nuclei fraction z-score” value in test [4] came out at 0.183.

For the compound `CC(C)(C)C(=O)Oc1ccc(S(=O)(=O)Nc2ccccc2C(=O)NCC(=O)O)cc1` [Sivelestat sodium tetrahydrate], the nucleus area z-score in test [1] amounted to 0.115. In test [2], the “total neurite length per nucleus (z-score)” value was -0.191. The compound also returned a nucleus roundness z-score in test [3] of 0.14. For the same compound, the “KCl-induced FOS+/EGR-1+ double-positive nuclei fraction z-score” value in test [4] worked out at 0.919.

`COc1cc(/C=C/C(=O)O)ccc1O` [Ferulic Acid] came in with a nucleus area z-score in test [1] of -0.743. In addition, the “total neurite length per nucleus (z-score)” value in test [2] turned out to be 0.233. For the same compound, the nucleus roundness z-score in test [3] was found to be 1.04. Besides, in test [4], the “KCl-induced FOS+/EGR-1+ double-positive nuclei fraction z-score” value came to 0.453.

In test [1], `CCCN(CCc1cccs1)[C@H]1CCc2c(O)cccc2C1` [Rotigotine] registered a nucleus area z-score of -0.183. Moreover, the “total neurite length per nucleus (z-score)” value in test [2] was -0.428. This compound returned a nucleus roundness z-score in test [3] of -0.0272. For the same compound, in test [4], the “KCl-induced FOS+/EGR-1+ double-positive nuclei fraction z-score” value was -0.285.

In the case of `N=C(N)NS(=O)(=O)c1ccc(N)cc1` [Sulfaguanidine], the nucleus area z-score in test [1] was 0.061. In test [2], the “total neurite length per nucleus (z-score)” value is 1.2. The compound further had a nucleus roundness z-score in test [3] of 1.26. The “KCl-induced FOS+/EGR-1+ double-positive nuclei fraction z-score” value in test [4] was determined as 1.01.

`CC[C@H](C)C(=O)O[C@H]1C[C@@H](C)C=C2C=C[C@H](C)[C@H](CC[C@@H]3C[C@@H](O)CC(=O)O3)[C@H]21` [Lovastatin] returned a nucleus area z-score in test [1] of -1.8. Further, in test [2], the “total neurite length per nucleus (z-score)” value amounted to 0.0302. Moreover, the nucleus roundness z-score in test [3] is 1.4. The “KCl-induced FOS+/EGR-1+ double-positive nuclei fraction z-score” value in test [4] is -0.147.

For the compound `O=C(c1ccc(OCCCc2c[nH]cn2)cc1)C1CC1` [Ciproxifan], in test [1], the nucleus area z-score was determined as 2.8. Moreover, the “total neurite length per nucleus (z-score)” value in test [2] was -1.64. Moreover, the nucleus roundness z-score in test [3] was -0.402. Besides, the “KCl-induced FOS+/EGR-1+ double-positive nuclei fraction z-score” value in test [4] was -0.167.

For `c1cncc(CN2CCC(n3ncc4c(N5CCOCC5)nc(-c5ccc6[nH]ccc6c5)nc43)CC2)c1`, the nucleus area z-score in test [1] is -6.6. Moreover, in test [2], the “total neurite length per nucleus (z-score)” value is -1.68. This compound registered a nucleus roundness z-score in test [3] of -1.17. In test [4], the “KCl-induced FOS+/EGR-1+ double-positive nuclei fraction z-score” value was -0.838.

Compound `N[C@@H](Cc1cc(I)c(Oc2ccc(O)c(I)c2)c(I)c1)C(=O)O` [Liothyronine Sodium] had a nucleus area z-score in test [1] of -0.341. The “total neurite length per nucleus (z-score)” value in test [2] was 0.797. This compound yielded a nucleus roundness z-score in test [3] of 0.422. Further, the “KCl-induced FOS+/EGR-1+ double-positive nuclei fraction z-score” value in test [4] stood at 0.504.

In turn, `CC(C)C[C@H](NC(=O)CNC(=O)c1cc(Cl)ccc1Cl)B(O)O` showed a nucleus area z-score in test [1] of -16.6. The “total neurite length per nucleus (z-score)” value in test [2] is -5.34. Also, the nucleus roundness z-score in test [3] was -7.8. Further, the “KCl-induced FOS+/EGR-1+ double-positive nuclei fraction z-score” value in test [4] was -1.15.

`CCOc1nc2cccc(C(=O)OC(C)OC(=O)OC3CCCCC3)c2n1Cc1ccc(-c2ccccc2-c2nn[nH]n2)cc1` (stereo not given) [Candesartan Cilexetil]: the nucleus area z-score in test [1] came out at 1.76. In test [2], the “total neurite length per nucleus (z-score)” value is -1.23. Besides, the nucleus roundness z-score in test [3] is -1.53. Besides, the “KCl-induced FOS+/EGR-1+ double-positive nuclei fraction z-score” value in test [4] worked out at 0.662.

With `Cc1nc2n(c(=O)c1CCN1CCC(c3noc4cc(F)ccc34)CC1)CCCC2O` (stereo not given) [Paliperidone], the nucleus area z-score in test [1] is 0.0316. The “total neurite length per nucleus (z-score)” value in test [2] was found to be 0.724. The nucleus roundness z-score in test [3] stood at 1.74. Moreover, the “KCl-induced FOS+/EGR-1+ double-positive nuclei fraction z-score” value in test [4] is 2.05.

In test [1], `CCCc1ccc(OCC(=O)N(Cc2nc(-c3cccnc3)no2)C(C)C)cc1` registered a nucleus area z-score of 0.844. Also, the “total neurite length per nucleus (z-score)” value in test [2] stood at 1.5. Also, the nucleus roundness z-score in test [3] worked out at 0.929. The “KCl-induced FOS+/EGR-1+ double-positive nuclei fraction z-score” value in test [4] came out at 1.79.

In test [1], `CN(C)CCN1C(=O)c2cccc3cc(N)cc(c23)C1=O` [Amonafide] gave a nucleus area z-score of -0.239. Further, in test [2], the “total neurite length per nucleus (z-score)” value was found to be 1.07. This compound showed a nucleus roundness z-score in test [3] of -0.41. In test [4], the “KCl-induced FOS+/EGR-1+ double-positive nuclei fraction z-score” value was -0.337.

Compound `CCN(CC)C(=O)C1(c2ccccc2)CC1CN` (stereo not given) [Milnacipran HCl] displayed a nucleus area z-score in test [1] of 0.791. Moreover, the “total neurite length per nucleus (z-score)” value in test [2] came to 0.0604. Besides, in test [3], the nucleus roundness z-score is 0.58. For the same compound, in test [4], the “KCl-induced FOS+/EGR-1+ double-positive nuclei fraction z-score” value is 1.41.

For `O=C(Nc1ccncc1)c1cc([N+](=O)[O-])ccc1Cl`, the nucleus area z-score in test [1] was 0.985. Also, the “total neurite length per nucleus (z-score)” value in test [2] came out at 0.857. The nucleus roundness z-score in test [3] was -0.762. Besides, the “KCl-induced FOS+/EGR-1+ double-positive nuclei fraction z-score” value in test [4] came to 0.365.

Take `O=C1O[C@H]([C@@H](O)CO)C([O-])=C1O.[Na+]` [Sodium ascorbate]: the nucleus area z-score in test [1] was 0.425. In addition, the “total neurite length per nucleus (z-score)” value in test [2] was 0.546. Moreover, the nucleus roundness z-score in test [3] worked out at 0.0315. Further, in test [4], the “KCl-induced FOS+/EGR-1+ double-positive nuclei fraction z-score” value was 1.21.

As to `COc1ccc2cc1Oc1ccc(cc1)C[C@H]1c3c(cc4c(c3Oc3cc5c(cc3OC)CCN(C)[C@@H]5C2)OCO4)CCN1C` [Cepharanthine], in test [1], the nucleus area z-score was -17.4. Moreover, the “total neurite length per nucleus (z-score)” value in test [2] is -5.43. The compound also showed a nucleus roundness z-score in test [3] of -6.38. For the same compound, the “KCl-induced FOS+/EGR-1+ double-positive nuclei fraction z-score” value in test [4] was determined as 5.91.

With `Cn1c(=O)c2nc[nH]c2n(C)c1=O` [Theophylline], the nucleus area z-score in test [1] was -0.0288. Further, in test [2], the “total neurite length per nucleus (z-score)” value was 0.176. Moreover, the nucleus roundness z-score in test [3] is -0.109. Moreover, the “KCl-induced FOS+/EGR-1+ double-positive nuclei fraction z-score” value in test [4] came out at 0.0371.
